The list shows a part of the results.
Assays:
Test in all cases: log2 fold change, soluble protein after heating vs DMSO (PISA); higher = thermal stabilisation; K562 cells, 10 uM, 30 min; active = over 0.2 and 3.5 SD of the protein, either way, in both replicates (recomputed)
bafetinib = compound: Cc1ccc(NC(=O)c2ccc(CN3CC[C@H](N(C)C)C3)c(C(F)(F)F)c2)cc1Nc1nccc(-c2cncnc2)n1 [bafetinib]
Summary of the method: (§1)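 K562 cells at 2×10^6 cells/mL were exposed to 10 μM compound for 30 min, then aliquots were heated for 3 min across 48°C-58°C, pooled, and extracted in PBS containing 0.5% NP-40 at 4°C. The supernatant after 21,000xg for 90 min was taken as soluble protein and measured by TMTpro 16plex LC-MS/MS with channel sums equalised. Thermal stability is reported relative to control samples, with values from duplicates. Fold changes are given on a log2 scale.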

The chains behind the UniProt entries cited, without tags or fusion partners. Where a name states a change or a piece, a line headed by the entry shows the natural chain unless it says otherwise.
UniProt Q03426, whole entry, looked up: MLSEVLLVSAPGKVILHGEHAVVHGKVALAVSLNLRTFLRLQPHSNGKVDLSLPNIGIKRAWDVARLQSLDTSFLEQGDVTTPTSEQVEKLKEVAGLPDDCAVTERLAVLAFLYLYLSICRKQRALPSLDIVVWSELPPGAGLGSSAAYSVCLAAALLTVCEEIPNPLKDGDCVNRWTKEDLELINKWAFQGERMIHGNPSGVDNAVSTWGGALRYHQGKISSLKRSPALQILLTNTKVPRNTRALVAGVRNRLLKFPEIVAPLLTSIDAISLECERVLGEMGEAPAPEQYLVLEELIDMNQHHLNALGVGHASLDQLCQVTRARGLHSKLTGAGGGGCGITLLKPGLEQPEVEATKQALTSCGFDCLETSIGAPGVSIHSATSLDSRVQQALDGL
UniProt O75431: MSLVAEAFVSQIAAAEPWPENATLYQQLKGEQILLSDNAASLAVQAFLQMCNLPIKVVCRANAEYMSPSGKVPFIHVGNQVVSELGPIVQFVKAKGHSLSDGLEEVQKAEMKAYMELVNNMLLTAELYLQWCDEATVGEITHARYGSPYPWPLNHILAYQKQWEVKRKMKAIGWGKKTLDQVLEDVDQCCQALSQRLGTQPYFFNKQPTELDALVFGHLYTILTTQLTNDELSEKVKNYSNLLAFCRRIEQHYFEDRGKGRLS
UniProt P00846: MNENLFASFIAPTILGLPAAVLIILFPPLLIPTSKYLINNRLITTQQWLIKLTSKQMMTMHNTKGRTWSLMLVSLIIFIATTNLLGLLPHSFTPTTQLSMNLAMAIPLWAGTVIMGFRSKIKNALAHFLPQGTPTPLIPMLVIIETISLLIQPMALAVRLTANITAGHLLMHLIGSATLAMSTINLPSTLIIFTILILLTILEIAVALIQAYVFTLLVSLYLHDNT
UniProt O94832: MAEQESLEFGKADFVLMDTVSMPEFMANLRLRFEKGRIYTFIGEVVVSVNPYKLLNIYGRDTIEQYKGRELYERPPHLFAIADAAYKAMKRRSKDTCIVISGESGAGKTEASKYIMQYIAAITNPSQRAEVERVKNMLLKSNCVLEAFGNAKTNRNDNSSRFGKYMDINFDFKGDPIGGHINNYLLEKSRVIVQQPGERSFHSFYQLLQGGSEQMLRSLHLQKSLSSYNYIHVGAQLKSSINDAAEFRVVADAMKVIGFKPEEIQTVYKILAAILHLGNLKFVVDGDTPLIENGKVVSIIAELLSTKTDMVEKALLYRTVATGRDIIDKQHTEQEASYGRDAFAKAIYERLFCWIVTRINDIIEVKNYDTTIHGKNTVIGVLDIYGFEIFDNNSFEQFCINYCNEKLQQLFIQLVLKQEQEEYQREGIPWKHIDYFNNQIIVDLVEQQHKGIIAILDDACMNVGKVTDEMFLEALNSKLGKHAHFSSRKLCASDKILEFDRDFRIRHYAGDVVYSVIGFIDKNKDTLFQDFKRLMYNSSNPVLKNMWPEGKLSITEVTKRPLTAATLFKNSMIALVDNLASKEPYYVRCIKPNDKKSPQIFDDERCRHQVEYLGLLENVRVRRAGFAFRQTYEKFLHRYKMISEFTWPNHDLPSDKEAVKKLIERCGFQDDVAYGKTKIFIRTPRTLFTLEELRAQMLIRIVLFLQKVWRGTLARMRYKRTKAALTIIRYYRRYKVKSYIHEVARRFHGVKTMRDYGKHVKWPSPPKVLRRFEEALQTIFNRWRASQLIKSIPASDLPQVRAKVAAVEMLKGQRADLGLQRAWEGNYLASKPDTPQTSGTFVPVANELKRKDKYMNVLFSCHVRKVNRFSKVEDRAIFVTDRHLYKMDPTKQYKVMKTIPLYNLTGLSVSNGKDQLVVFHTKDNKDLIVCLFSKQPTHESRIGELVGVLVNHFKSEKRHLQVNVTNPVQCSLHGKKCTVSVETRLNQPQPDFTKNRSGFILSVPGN
UniProt Q969H8: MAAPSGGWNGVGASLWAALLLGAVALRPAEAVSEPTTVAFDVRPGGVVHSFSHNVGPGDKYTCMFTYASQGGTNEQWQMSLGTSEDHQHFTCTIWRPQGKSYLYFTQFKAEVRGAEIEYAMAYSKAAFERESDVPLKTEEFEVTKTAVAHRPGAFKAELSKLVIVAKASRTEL
MTHFD1, A0A384N5Y3, UniProt A0A384N5Y3, whole entry, looked up: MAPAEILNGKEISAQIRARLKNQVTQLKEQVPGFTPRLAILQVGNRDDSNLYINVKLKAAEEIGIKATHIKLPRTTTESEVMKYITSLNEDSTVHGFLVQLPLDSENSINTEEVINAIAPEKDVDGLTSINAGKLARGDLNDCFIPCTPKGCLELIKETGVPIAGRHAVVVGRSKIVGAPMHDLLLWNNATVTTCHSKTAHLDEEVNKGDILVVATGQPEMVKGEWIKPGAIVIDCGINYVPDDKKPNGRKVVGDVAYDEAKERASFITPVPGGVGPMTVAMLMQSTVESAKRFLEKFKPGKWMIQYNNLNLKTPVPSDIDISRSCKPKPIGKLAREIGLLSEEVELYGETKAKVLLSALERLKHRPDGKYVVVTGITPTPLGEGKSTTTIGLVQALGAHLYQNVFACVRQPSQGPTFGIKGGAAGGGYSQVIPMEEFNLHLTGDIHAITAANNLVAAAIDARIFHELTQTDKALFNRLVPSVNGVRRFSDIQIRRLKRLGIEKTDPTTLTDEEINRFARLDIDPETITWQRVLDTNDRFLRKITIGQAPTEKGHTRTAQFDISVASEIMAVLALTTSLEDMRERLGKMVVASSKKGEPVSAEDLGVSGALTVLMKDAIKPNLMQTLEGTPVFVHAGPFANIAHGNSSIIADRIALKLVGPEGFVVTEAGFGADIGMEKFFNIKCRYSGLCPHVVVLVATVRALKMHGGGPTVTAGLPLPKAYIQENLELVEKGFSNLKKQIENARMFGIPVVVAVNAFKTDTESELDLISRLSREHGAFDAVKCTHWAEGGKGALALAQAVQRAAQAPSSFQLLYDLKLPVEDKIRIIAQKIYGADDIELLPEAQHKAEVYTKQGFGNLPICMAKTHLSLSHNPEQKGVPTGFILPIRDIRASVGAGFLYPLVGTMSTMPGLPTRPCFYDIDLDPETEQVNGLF
UniProt P26038, whole entry, looked up: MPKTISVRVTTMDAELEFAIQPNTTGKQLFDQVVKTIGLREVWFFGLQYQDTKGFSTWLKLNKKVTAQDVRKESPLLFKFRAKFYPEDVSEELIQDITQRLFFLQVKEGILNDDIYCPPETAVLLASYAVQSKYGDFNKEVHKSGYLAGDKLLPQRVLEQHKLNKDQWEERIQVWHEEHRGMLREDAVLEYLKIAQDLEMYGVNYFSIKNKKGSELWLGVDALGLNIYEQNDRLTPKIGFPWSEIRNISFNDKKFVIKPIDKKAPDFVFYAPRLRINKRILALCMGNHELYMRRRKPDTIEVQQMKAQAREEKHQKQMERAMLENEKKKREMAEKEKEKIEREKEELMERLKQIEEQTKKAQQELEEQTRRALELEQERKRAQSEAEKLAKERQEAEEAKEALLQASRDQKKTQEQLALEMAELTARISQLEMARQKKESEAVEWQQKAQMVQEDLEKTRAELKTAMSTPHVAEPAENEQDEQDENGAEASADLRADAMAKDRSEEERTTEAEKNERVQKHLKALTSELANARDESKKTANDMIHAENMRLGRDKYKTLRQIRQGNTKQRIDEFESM
UniProt Q9UM54, whole entry, looked up: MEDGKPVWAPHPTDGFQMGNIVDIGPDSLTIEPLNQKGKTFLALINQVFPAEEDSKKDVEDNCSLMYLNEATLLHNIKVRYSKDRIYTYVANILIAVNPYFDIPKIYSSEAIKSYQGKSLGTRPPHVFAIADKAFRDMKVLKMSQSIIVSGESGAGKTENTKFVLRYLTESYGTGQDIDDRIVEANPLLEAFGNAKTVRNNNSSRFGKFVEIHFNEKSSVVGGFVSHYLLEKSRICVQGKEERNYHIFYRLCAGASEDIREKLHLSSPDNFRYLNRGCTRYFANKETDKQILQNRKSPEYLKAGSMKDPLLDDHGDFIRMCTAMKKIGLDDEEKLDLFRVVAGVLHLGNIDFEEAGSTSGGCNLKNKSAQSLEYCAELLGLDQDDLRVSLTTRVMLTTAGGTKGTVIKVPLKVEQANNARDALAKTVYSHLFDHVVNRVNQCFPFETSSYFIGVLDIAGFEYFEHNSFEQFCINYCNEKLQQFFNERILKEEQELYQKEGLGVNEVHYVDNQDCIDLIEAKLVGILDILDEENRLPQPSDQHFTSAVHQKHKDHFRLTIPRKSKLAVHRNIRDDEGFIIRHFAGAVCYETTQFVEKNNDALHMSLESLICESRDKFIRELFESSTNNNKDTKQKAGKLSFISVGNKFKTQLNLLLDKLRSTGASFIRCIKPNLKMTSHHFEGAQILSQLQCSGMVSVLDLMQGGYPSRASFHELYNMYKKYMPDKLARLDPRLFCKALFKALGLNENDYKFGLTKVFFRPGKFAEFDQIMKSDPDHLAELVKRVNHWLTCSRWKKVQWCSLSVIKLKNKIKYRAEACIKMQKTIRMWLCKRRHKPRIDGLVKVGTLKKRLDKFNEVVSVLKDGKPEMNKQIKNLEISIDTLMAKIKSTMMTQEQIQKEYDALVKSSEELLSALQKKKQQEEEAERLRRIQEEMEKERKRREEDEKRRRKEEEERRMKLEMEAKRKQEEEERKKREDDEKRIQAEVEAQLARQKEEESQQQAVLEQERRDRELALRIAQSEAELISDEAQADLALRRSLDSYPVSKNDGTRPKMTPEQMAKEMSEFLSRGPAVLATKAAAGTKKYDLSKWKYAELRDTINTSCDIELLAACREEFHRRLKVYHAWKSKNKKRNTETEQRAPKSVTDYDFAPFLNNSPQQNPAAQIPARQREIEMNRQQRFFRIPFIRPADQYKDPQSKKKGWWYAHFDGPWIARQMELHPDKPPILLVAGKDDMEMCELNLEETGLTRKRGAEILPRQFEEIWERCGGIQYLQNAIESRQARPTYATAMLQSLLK
UniProt Q99417: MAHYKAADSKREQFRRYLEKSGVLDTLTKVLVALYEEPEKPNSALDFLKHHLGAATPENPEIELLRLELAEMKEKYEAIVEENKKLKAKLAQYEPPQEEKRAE
UniProt Q13614, whole entry, looked up: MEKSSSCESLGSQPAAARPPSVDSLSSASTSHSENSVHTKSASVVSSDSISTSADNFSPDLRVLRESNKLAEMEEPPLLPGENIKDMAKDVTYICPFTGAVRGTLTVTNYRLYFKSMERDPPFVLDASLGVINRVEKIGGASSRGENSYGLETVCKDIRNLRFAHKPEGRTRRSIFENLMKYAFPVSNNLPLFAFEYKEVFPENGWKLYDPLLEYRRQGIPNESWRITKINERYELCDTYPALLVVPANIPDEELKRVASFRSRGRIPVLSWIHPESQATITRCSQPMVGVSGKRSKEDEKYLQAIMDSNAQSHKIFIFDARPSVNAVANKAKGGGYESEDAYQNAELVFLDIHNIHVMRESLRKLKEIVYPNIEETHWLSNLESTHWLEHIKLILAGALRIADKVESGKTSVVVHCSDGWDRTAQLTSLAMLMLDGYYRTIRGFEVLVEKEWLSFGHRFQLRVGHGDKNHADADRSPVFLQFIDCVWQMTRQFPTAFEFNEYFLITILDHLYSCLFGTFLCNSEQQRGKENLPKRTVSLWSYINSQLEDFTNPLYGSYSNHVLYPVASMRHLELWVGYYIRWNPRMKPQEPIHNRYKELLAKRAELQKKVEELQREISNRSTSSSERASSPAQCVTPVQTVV
UniProt O94776: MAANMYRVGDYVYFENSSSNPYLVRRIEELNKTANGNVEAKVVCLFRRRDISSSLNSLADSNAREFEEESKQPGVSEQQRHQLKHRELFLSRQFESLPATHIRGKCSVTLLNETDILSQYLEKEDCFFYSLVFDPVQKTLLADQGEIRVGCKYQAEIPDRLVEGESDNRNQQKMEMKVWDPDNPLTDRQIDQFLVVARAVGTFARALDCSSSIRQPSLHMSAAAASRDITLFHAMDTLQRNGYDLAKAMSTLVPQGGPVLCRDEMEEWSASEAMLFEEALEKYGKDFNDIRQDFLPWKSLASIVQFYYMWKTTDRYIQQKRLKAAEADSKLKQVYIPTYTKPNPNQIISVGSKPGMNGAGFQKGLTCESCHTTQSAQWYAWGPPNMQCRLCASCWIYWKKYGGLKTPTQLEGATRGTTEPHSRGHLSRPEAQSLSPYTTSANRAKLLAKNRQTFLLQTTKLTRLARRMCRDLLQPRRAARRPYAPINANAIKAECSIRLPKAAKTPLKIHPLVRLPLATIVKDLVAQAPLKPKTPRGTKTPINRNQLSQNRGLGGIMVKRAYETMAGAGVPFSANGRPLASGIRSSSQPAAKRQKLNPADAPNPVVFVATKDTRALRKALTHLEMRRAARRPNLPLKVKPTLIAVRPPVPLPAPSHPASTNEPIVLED

[1] = compound: Cc1cccc(CC(=O)N2CCc3c2ccc(-c2cn(C)c4ncnc(N)c24)c3F)n1
Summary of the method: as §1

nilotinib = compound: Cc1cn(-c2cc(NC(=O)c3ccc(C)c(Nc4nccc(-c5cccnc5)n4)c3)cc(C(F)(F)F)c2)cn1 [nilotinib]
Summary of the method: as §1

[2] = compound: Cc1nc(Nc2n[nH]c3c2CN(C(=O)N[C@H](CN(C)C)c2ccccc2)C3(C)C)c2sccc2n1
Summary of the method: as §1

dasatinib = compound: Cc1nc(Nc2ncc(C(=O)Nc3c(C)cccc3Cl)s2)cc(N2CCN(CCO)CC2)n1 [dasatinib]
Summary of the method: as §1

[3] = compound: Cc1ncc(-c2ccnc(Nc3ccc(S(C)(=O)=O)cc3)n2)n1C(C)C
Summary of the method: as §1

[4] = compound: Cn1cc(-c2ccc3c(c2)CCN3C(=O)Cc2cccc(C(F)(F)F)c2)c2c(N)ncnc21
Summary of the method: as §1

[5] = compound: Cn1cc(-c2ccc3nnc(C(F)(F)c4ccc5ncccc5c4)n3n2)cn1
Summary of the method: as §1

tipifarnib = compound: Cn1cncc1[C@@](N)(c1ccc(Cl)cc1)c1ccc2c(c1)c(-c1cccc(Cl)c1)cc(=O)n2C [tipifarnib]
Summary of the method: as §1

mubritinib = compound: FC(F)(F)c1ccc(/C=C/c2nc(COc3ccc(CCCCn4ccnn4)cc3)co2)cc1 [mubritinib]
Summary of the method: as §1

[6] = compound: NC(=O)Nc1cc(-c2cccc(F)c2)sc1C(=O)N[C@H]1CCCNC1
Summary of the method: as §1

[7] = compound: NC(=O)c1cnc(N[C@@H]2CCCC[C@@H]2N)nc1Nc1cccc(-n2nccn2)c1
Summary of the method: as §1

[8] = compound: NC1(c2ccc(-c3nc4ccn5c(=O)[nH]nc5c4cc3-c3ccccc3)cc2)CCC1
Summary of the method: as §1

[9] = compound: NCC(=O)Nc1ccc(-n2nc(C(F)(F)F)cc2-c2ccc3c(ccc4ccccc43)c2)cc1
Summary of the method: as §1

entinostat = compound: Nc1ccccc1NC(=O)c1ccc(CNC(=O)OCc2cccnc2)cc1 [entinostat]
Summary of the method: as §1

vorinostat = compound: O=C(CCCCCCC(=O)Nc1ccccc1)NO [vorinostat]
Summary of the method: as §1

citarinostat = compound: O=C(CCCCCCNC(=O)c1cnc(N(c2ccccc2)c2ccccc2Cl)nc1)NO [citarinostat]
Summary of the method: as §1

silmitasertib = compound: O=C(O)c1ccc2c(c1)nc(Nc1cccc(Cl)c1)c1ccncc12 [silmitasertib]
Summary of the method: as §1

[10] = compound: O=C1NC(=O)C(c2cnc3ccccn23)=C1c1cn2c3c(cc(F)cc13)CN(C(=O)N1CCCCC1)CC2
Summary of the method: as §1

[11] = compound: c1cc(OCCN2CCCCC2)cc(-c2n[nH]c3ccc(-c4nnc[nH]4)cc23)c1
Summary of the method: as §1

Measured: log2 fold change

MVK (UniProt Q03426)
inactive: bafetinib -0.058 | [1] -0.011 | nilotinib -0.012 | [2] -0.012 | dasatinib 0.029 | [3] -0.011 | [4] 0.023 | [5] -0.006 | tipifarnib -0.021 | mubritinib -0.002 | [6] -0.031 | [7] -0.02 | [8] -0.04 | [9] -0.005 | entinostat -0.042 | vorinostat 0.031 | citarinostat 0.036 | silmitasertib 0.044 | [10] -0.033 | [11] -0.063

MRPS15 (UniProt P82914)
inactive: bafetinib 0.126 | [1] 0.159 | nilotinib -0.33 | [2] 0.056 | dasatinib -0.046 | [3] 0.07 | [4] 0.05 | [5] 0.032 | tipifarnib -0.105 | mubritinib 0.172 | [6] 0.039 | [7] 0.06 | [8] -0.057 | [9] 0.119 | entinostat 0.072 | vorinostat 0.077 | citarinostat 0.028 | silmitasertib -0.114 | [10] 0.085 | [11] -0.031

MTX2 (UniProt O75431)
inactive: bafetinib -0.083 | [1] -0.04 | nilotinib 0.062 | [2] 0.013 | dasatinib -0.043 | [3] -0.01 | [4] 0.023 | [5] -0.001 | tipifarnib 0.001 | mubritinib 0.014 | [6] -0.014 | [7] 0.032 | [8] 0.013 | [9] -0.005 | entinostat -0.03 | vorinostat -0.072 | citarinostat 0.033 | silmitasertib -0.023 | [10] -0.109 | [11] -0.079

MT-ATP6 (UniProt P00846)
inactive: bafetinib 0.162 | [1] 0.086 | nilotinib 0.006 | [2] 0.005 | dasatinib -0.101 | [3] -0.043 | [4] -0.024 | [5] 0.11 | tipifarnib 0.231 | mubritinib 0.028 | [6] -0.003 | [7] -0.007 | [8] 0.197 | [9] 0.081 | entinostat -0.018 | vorinostat -0.007 | citarinostat 0.097 | silmitasertib -0.005 | [10] 0.037 | [11] -0.04

MTREX (UniProt P42285)
inactive: bafetinib -0.006 | [1] 0.023 | nilotinib -0.023 | [2] 0.015 | dasatinib -0.091 | [3] -0.004 | [4] 0.017 | [5] 0.011 | tipifarnib -0.031 | mubritinib 0.079 | [6] 0.086 | [7] -0.02 | [8] 0.03 | [9] -0.038 | entinostat -0.001 | vorinostat 0.007 | citarinostat 0.017 | silmitasertib -0.016 | [10] -0.052 | [11] -0.012

MYO1D (UniProt O94832)
inactive: bafetinib -0.055 | [1] 0.122 | nilotinib -0.1 | [2] -0.113 | dasatinib 0.101 | [3] 0.039 | [4] -0.121 | [5] -0.071 | tipifarnib 0.146 | mubritinib -0.154 | [6] -0.029 | [7] -0.082 | [8] 0.052 | [9] -0.019 | entinostat -0.04 | vorinostat 0.049 | citarinostat -0.083 | silmitasertib 0.15 | [10] 0.107 | [11] -0.096

MRPS12 (UniProt O15235)
inactive: bafetinib 0.269 | [1] 0.146 | nilotinib -0.161 | [2] 0.073 | dasatinib 0.062 | [3] -0.024 | [4] -0.045 | [5] 0.111 | tipifarnib -0.082 | mubritinib 0.143 | [6] 0.207 | [7] -0.053 | [8] -0.005 | [9] 0.221 | entinostat -0.017 | vorinostat 0.038 | citarinostat 0.01 | silmitasertib -0.007 | [10] 0.101 | [11] -0.056

MYDGF (UniProt Q969H8)
inactive: bafetinib -0.098 | [1] -0.04 | nilotinib 0.005 | [2] 0.003 | dasatinib 0.064 | [3] -0.016 | [4] -0.039 | [5] 0.012 | tipifarnib 0.012 | mubritinib 0.029 | [6] -0.043 | [7] -0.025 | [8] -0.01 | [9] 0.014 | entinostat -0.016 | vorinostat -0.041 | citarinostat 0.023 | silmitasertib -0.004 | [10] -0.03 | [11] -0.029

MTHFD1, A0A384N5Y3
inactive: bafetinib 0.099 | [1] -0.055 | nilotinib 0.239 | [2] -0.099 | dasatinib -0.153 | [3] -0.031 | [4] 0.087 | [5] -0.008 | tipifarnib -0.146 | mubritinib 0.107 | [6] -0.048 | [7] -0.033 | [8] 0.17 | [9] -0.077 | entinostat -0.059 | vorinostat 0.013 | citarinostat 0.024 | silmitasertib -0.091 | [10] -0.056 | [11] 0.041

MSN (UniProt P26038)
inactive: bafetinib 0.029 | [1] 0.015 | nilotinib 0.007 | [2] 0.009 | dasatinib -0.019 | [3] -0.004 | [4] 0.038 | [5] -0.017 | tipifarnib -0.067 | mubritinib 0.043 | [6] 0.042 | [7] -0.011 | [8] 0.01 | [9] 0.02 | entinostat 0.014 | vorinostat -0.02 | citarinostat -0.001 | silmitasertib -0.018 | [10] 0.004 | [11] 0.011

MYO6 isoform 6 (UniProt Q9UM54)
inactive: bafetinib -0.063 | [1] -0.015 | nilotinib 0.036 | [2] -0.018 | dasatinib -0.01 | [3] 0.002 | [4] 0.064 | [5] -0.046 | tipifarnib -0.019 | mubritinib 0.063 | [6] 0.045 | [7] -0.001 | [8] -0.07 | [9] 0.008 | entinostat -0.025 | vorinostat 0.013 | citarinostat -0.033 | silmitasertib -0.008 | [10] 0.001 | [11] -0.04

MYCBP (UniProt Q99417)
inactive: bafetinib -0.03 | [1] -0.049 | nilotinib -0.028 | [2] 0.013 | dasatinib 0.074 | [3] -0.043 | [4] 0.009 | [5] 0.021 | tipifarnib 0.061 | mubritinib 0.031 | [6] -0.047 | [7] -0.091 | [8] 0.034 | [9] -0.087 | entinostat 0.002 | vorinostat -0.053 | citarinostat 0.009 | silmitasertib -0.044 | [10] -0.061 | [11] -0.043

MTPAP (UniProt Q9NVV4)
inactive: bafetinib 0.091 | [1] -0.081 | nilotinib -0.117 | [2] 0.068 | dasatinib -0.191 | [3] 0.06 | [4] -0.163 | [5] -0.003 | tipifarnib 0.165 | mubritinib -0.398 | [6] 0 | [7] 0.075 | [8] 0.105 | [9] -0.023 | entinostat 0.008 | vorinostat 0.173 | citarinostat -0.021 | silmitasertib 0.074 | [10] 0.1 | [11] -0.093

MTMR2 (UniProt Q13614)
inactive: bafetinib -0.009 | [1] -0.024 | nilotinib 0 | [2] 0.049 | dasatinib -0.039 | [3] -0.026 | [4] 0.121 | [5] -0.1 | tipifarnib 0.038 | mubritinib 0.012 | [6] -0.012 | [7] -0.014 | [8] -0.026 | [9] -0.055 | entinostat -0.011 | vorinostat 0.009 | citarinostat 0.033 | silmitasertib 0.03 | [10] -0.009 | [11] -0.102

MTA2 (UniProt O94776)
inactive: bafetinib 0.049 | [1] 0.038 | nilotinib -0.052 | [2] -0.132 | dasatinib -0.093 | [3] -0.025 | [4] 0.004 | [5] 0.027 | tipifarnib -0.004 | mubritinib -0.071 | [6] 0.04 | [7] -0.125 | [8] -0.084 | [9] -0.032 | entinostat 0.098 | vorinostat -0.085 | citarinostat 0.031 | silmitasertib -0.027 | [10] 0.004 | [11] -0.071

MRTO4 (UniProt Q9UKD2)
inactive: bafetinib 0.255 | [1] -0.033 | nilotinib -0.043 | [2] 0.041 | dasatinib 0.052 | [3] -0.012 | [4] -0.157 | [5] -0.186 | tipifarnib 0.085 | mubritinib -0.197 | [6] 0.031 | [7] 0.329 | [8] 0.245 | [9] 0 | entinostat 0.021 | vorinostat 0.055 | citarinostat 0.075 | silmitasertib 0.087 | [10] 0.127 | [11] -0.161

Two consecutive entries out of the list so far:
MTX2 (UniProt O75431)
inactive: bafetinib -0.083 | [1] -0.04 | nilotinib 0.062 | [2] 0.013 | dasatinib -0.043 | [3] -0.01 | [4] 0.023 | [5] -0.001 | tipifarnib 0.001 | mubritinib 0.014 | [6] -0.014 | [7] 0.032 | [8] 0.013 | [9] -0.005 | entinostat -0.03 | vorinostat -0.072 | citarinostat 0.033 | silmitasertib -0.023 | [10] -0.109 | [11] -0.079

MT-ATP6 (UniProt P00846)
inactive: bafetinib 0.162 | [1] 0.086 | nilotinib 0.006 | [2] 0.005 | dasatinib -0.101 | [3] -0.043 | [4] -0.024 | [5] 0.11 | tipifarnib 0.231 | mubritinib 0.028 | [6] -0.003 | [7] -0.007 | [8] 0.197 | [9] 0.081 | entinostat -0.018 | vorinostat -0.007 | citarinostat 0.097 | silmitasertib -0.005 | [10] 0.037 | [11] -0.04
